Source: patent US20240218022A1, “ANTI-VISTA MACROCYCLIC PEPTIDES AND COMPOSITIONS” (BRISTOL-MYERS SQUIBB COMPANY, priority 2022, published 2024)
Where two headings read alike, the source gives them in different places. At least one structure is not confirmed: it was looked up by name or label, or the drawing left a doubt. Starred links: 1 amine or outer side, 2 acyl side, 3 side chain; linkers in the order of their positions; H or OH if unused. Positions of bridges follow the written chain, without caps; N, C: chain ends. Non-standard residues stand in square brackets, D forms with d. Residues, ends and D or L forms follow the SMILES beside them. ξ: configuration not given here. Phe(2,4-F2) = N[C@@H](Cc1ccc(F)cc1F)C(=O)O; Phe(3-Me) = Cc1cccc(C[C@H](N)C(=O)O)c1; 2Nal = N[C@@H](Cc1ccc2ccccc2c1)C(=O)O; βAsp = O=C(O)[C@H](CC(=O)[*:2])N[*:1]; Hyp = O=C(O)[C@@H]1C[C@@H](O)CN1; NMeF = CN[C@@H](Cc1ccccc1)C(=O)O; Cit = NC(=O)NCCC[C@H](N)C(=O)O; NMeL = CN[C@@H](CC(C)C)C(=O)O; Ahp(2) = CCCCC[C@H](N)C(=O)O; NMeNle = CCCC[C@H](NC)C(=O)O; Tle = CC(C)(C)[C@H](N)C(=O)O; NHexGly = CCCCCCNCC(=O)O; Nle = CCCC[C@H](N)C(=O)O; Orn = NCCC[C@H](N)C(=O)O; Aun = NCCCCCCCCCCC(=O)O; AEEA = NCCOCCOCC(=O)O; ξP = O=C(O)C1CCCN1; Sar = CNCC(=O)O

Target: T1, mouse VISTA (mVISTA) (Mus musculus, UniProt Q9D659)
T1 construct: expressed in transfected cells; host or cells: Human embryonic kidney 293T cells
T1 sequence (Q9D659 33-308): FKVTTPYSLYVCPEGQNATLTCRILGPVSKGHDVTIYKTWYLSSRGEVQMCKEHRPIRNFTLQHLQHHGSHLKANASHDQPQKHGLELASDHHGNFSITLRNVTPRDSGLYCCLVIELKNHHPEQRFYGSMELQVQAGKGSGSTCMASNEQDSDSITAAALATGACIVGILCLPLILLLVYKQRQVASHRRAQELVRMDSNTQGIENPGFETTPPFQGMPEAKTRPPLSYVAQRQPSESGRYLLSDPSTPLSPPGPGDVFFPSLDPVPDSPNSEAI
Assay: Cell-Based Binding High-Content Assay For mVISTA (HC CBA mVISTA)
How it was run: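 Read-out: Alexa 647–streptavidin signal imaged on fixed, Hoechst-stained mVISTA-293T cells, with IC50 taken from a four-parameter logistic curve. Compounds competed with 2 nM biotinylated peptide for 30 min at room temperature, tested under both no-wash and wash (1 h compound, media exchange, 1 h) formats.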

[1] = cell-based binding high-content assay, read-out: HC CBA miPrISTA IC50

Row | Compound | IC50 (read-out: HC CBA mVISTA IC50) | other results
1 | CCCCCCN1CC(=O)N[C@@H](Cc2ccc(O)cc2)C(=O)N[C@@H](CCCC)C(=O)N[C@@H](CC(N)=O)C(=O)N[C@@H](CCCNC(=N)N)C(=O)N(C)[C@@H](CCCC)C(=O)N[C@@H](CCCCC)C(=O)N2CCC[C@H]2C(=O)N[C@@H](C(C)(C)C)C(=O)N[C@@H](CO)C(=O)N[C@H](C(=O)NCC(=O)N[C@@H](CC(=O)NCCOCCOCC(=O)NCCCCCCCCCCC(=O)O)C(=O)O)CSCC(=O)N[C@@H](Cc2ccccc2)C(=O)N[C@@H](Cc2ccc(O)cc2)C(=O)N[C@@H](CC(=O)O)C1=O [Example 2326] ({CH2CO}-FYD[NHexGly]Y[Nle]NR[NMeNle][Ahp(2)]P[Tle]SCG[βAsp][AEEA][Aun]-OH; thioether N-14) | – | IC50 (cell-based binding high-content assay, read-out: HC CBA mVISTA IC50): 16.7 nM
2 | CCCCCCN1CC(=O)N[C@@H](Cc2ccc(O)cc2)C(=O)N[C@@H](CC(C)C)C(=O)N[C@@H](CC(=O)O)C(=O)N[C@@H](CCCN)C(=O)N(C)[C@@H](CCCC)C(=O)N[C@@H](CCCCC)C(=O)N2CCC[C@H]2C(=O)N[C@@H](C(C)(C)C)C(=O)N[C@@H](CC(N)=O)C(=O)N[C@H](C(=O)NCCOCCOCC(=O)N[C@@H](CC(=O)NCCOCCOCC(=O)NCCCCCCCCCCC(=O)O)C(=O)O)CSCC(=O)N[C@@H](Cc2ccccc2)C(=O)N[C@@H](Cc2cccc(C)c2)C(=O)N[C@@H](CC(=O)O)C1=O [Example 2208] ({CH2CO}-F[Phe(3-Me)]D[NHexGly]YLD[Orn][NMeNle][Ahp(2)]P[Tle]NC[AEEA][βAsp][AEEA][Aun]-OH; thioether N-14) | 24.5 nM | –
3 | CCCCCCN1CC(=O)N[C@@H](Cc2ccc(O)cc2)C(=O)N[C@@H](CCCC)C(=O)N[C@@H](CC(N)=O)C(=O)N[C@@H](CCCNC(=N)N)C(=O)N[C@@H](CC(C)C)C(=O)N[C@@H](CCCCC)C(=O)N2CCC[C@H]2C(=O)N[C@@H](C(C)C)C(=O)N[C@@H](CC(=O)O)C(=O)N[C@H](C(=O)N[C@@H](CCCNC(=N)N)C(N)=O)CSCC(=O)N[C@@H](Cc2ccc3ccccc3c2)C(=O)N[C@@H](Cc2ccc(O)cc2)C(=O)N[C@@H](CC(=O)O)C1=O [Ex 1313] ({CH2CO}-[2Nal]YD[NHexGly]Y[Nle]NRL[Ahp(2)]PVDCR-NH2; thioether N-14) | – | IC50 (cell-based binding high-content assay, mVISTA, the 16th table, read-out: HC CBA mVISTA IC50): 3.1 nM
4 | CCCCCCN1CC(=O)N[C@@H](Cc2ccc(O)cc2)C(=O)N[C@@H](CCCC)C(=O)NCC(=O)N[C@@H](CCCNC(=N)N)C(=O)N[C@@H](CC(C)C)C(=O)N[C@@H](CCCCC)C(=O)N2CCC[C@H]2C(=O)N[C@@H](C(C)C)C(=O)N(C)CC(=O)N[C@H](C(=O)NCC(=O)O)CSCC(=O)N[C@@H](Cc2ccccc2)C(=O)N[C@@H](Cc2ccc(O)cc2)C(=O)N[C@@H](CC(=O)O)C1=O [compound 1113] ({CH2CO}-FYD[NHexGly]Y[Nle]GRL[Ahp(2)]PV[Sar]CG-OH; thioether N-14) | 35.2 nM | –
5 | CCCCCCN1CC(=O)N[C@@H](Cc2ccc(O)cc2)C(=O)N[C@@H](CCCC)C(=O)N[C@@H](CC(N)=O)C(=O)N[C@@H](CCCNC(=N)N)C(=O)N(C)[C@@H](CC(C)C)C(=O)N[C@@H](CCCCC)C(=O)N2CCC[C@H]2C(=O)N[C@@H](C(C)C)C(=O)N[C@@H](CO)C(=O)N[C@H](C(=O)N[C@@H](CC(=O)NCCOCCOCC(=O)NCCCCCCCCCCC(=O)O)C(=O)O)CSCC(=O)N[C@@H](Cc2ccccc2)C(=O)N[C@@H](Cc2c[nH]c3ccccc23)C(=O)N[C@@H](CC(=O)O)C1=O [Example 2163] ({CH2CO}-FWD[NHexGly]Y[Nle]NR[NMeL][Ahp(2)]PVSC[βAsp][AEEA][Aun]-OH; thioether N-14) | 14 nM | –
6 | CCCCCCN1CC(=O)N[C@@H](Cc2ccc(O)cc2)C(=O)N[C@@H](CCCC)C(=O)N[C@@H](CC(N)=O)C(=O)N[C@@H](CCCNC(N)=O)C(=O)N(C)[C@@H](CC(C)C)C(=O)N[C@@H](CCCCC)C(=O)N2CCCC2C(=O)N[C@@H](C(C)C)C(=O)N[C@@H](CO)C(=O)N[C@H](C(=O)NCCOCCOCC(=O)N[C@@H](CC(=O)O)C(=O)NCCOCCOCC(=O)NCCCCCCCCCCC(=O)O)CSCC(=O)N[C@@H](Cc2ccc3ccccc3c2)C(=O)N[C@@H](Cc2ccc(O)cc2)C(=O)N[C@@H](CC(=O)O)C1=O (some centres unmarked) [compound 2316] ({CH2CO}-[2Nal]YD[NHexGly]Y[Nle]N[Cit][NMeL][Ahp(2)][ξP]VSC[AEEA]D[AEEA][Aun]-OH; thioether N-14) | – | IC50 [1]: 35.7 nM
7 | CCCCCCN1CC(=O)N[C@@H](Cc2ccc(O)cc2)C(=O)N[C@@H](CCCC)C(=O)NCC(=O)N[C@@H](CCCNC(=N)N)C(=O)N[C@@H](CC(C)C)C(=O)N[C@@H](CCCCC)C(=O)N2CCC[C@H]2C(=O)N[C@@H](C(C)C)C(=O)N[C@@H](CC(=O)O)C(=O)N[C@H](C(=O)NCCOCCOCC(=O)N[C@@H](CCC(=O)O)C(=O)NCCOCCOCC(=O)NCCCCCCCCCCC(=O)O)CSCC(=O)N[C@@H](Cc2cccc(C)c2)C(=O)N[C@@H](Cc2ccc(O)cc2)C(=O)N[C@@H](CC(=O)O)C1=O [compound 2300] ({CH2CO}-[Phe(3-Me)]YD[NHexGly]Y[Nle]GRL[Ahp(2)]PVDC[AEEA]E[AEEA][Aun]-OH; thioether N-14) | – | IC50 [1]: 35.1 nM
8 | CCCCCCN1CC(=O)N[C@@H](Cc2ccc(O)cc2)C(=O)N[C@@H](CC(C)C)C(=O)N[C@@H](CC(=O)O)C(=O)N[C@@H](CCCNC(=N)N)C(=O)N(C)[C@@H](CCCC)C(=O)N[C@@H](CCCCC)C(=O)N2CCC[C@H]2C(=O)N[C@@H](C(C)(C)C)C(=O)N[C@@H](CC(N)=O)C(=O)N[C@H](C(=O)NCCOCCOCC(=O)N[C@@H](CC(=O)NCCOCCOCC(=O)NCCCCCCCCCCC(=O)O)C(=O)O)CSCC(=O)N[C@@H](Cc2ccccc2)C(=O)N[C@@H](Cc2c[nH]c3ccccc23)C(=O)N[C@@H](CC(=O)O)C1=O [Example 2211] ({CH2CO}-FWD[NHexGly]YLDR[NMeNle][Ahp(2)]P[Tle]NC[AEEA][βAsp][AEEA][Aun]-OH; thioether N-14) | 21.1 nM | –

Second part, led by results:

Row | IC50 (read-out: HC CBA mVISTA IC50) | Compound | other results
9 | 48.4 nM | CCCCCCN1CC(=O)N[C@@H](Cc2ccc(O)cc2)C(=O)N[C@@H](CCCC)C(=O)N[C@@H](CC(=O)O)C(=O)N[C@@H](CCCNC(=N)N)C(=O)N[C@@H](CC(C)C)C(=O)N[C@@H](CCCCC)C(=O)N2CCC[C@H]2C(=O)N[C@@H](C(C)C)C(=O)N(C)[C@@H](Cc2ccccc2)C(=O)N[C@H](C(=O)NCC(=O)O)CSCC(=O)N[C@@H](Cc2ccccc2)C(=O)N[C@@H](Cc2ccc(O)cc2)C(=O)N[C@@H](CC(=O)O)C1=O [compound 1112] ({CH2CO}-FYD[NHexGly]Y[Nle]DRL[Ahp(2)]PV[NMeF]CG-OH; thioether N-14) | –
10 | 5.3 nM | CCCCCCN1CC(=O)N[C@@H](Cc2ccc(O)cc2)C(=O)N[C@@H](CC(C)C)C(=O)N[C@@H](CC(N)=O)C(=O)N[C@@H](CCCNC(=N)N)C(=O)N[C@@H](CC(C)C)C(=O)N[C@@H](CCCCC)C(=O)N2CCC[C@H]2C(=O)N[C@@H](C(C)C)C(=O)N[C@@H](C(C)C)C(=O)N[C@H](C(=O)NCC(=O)O)CSCC(=O)N[C@@H](Cc2ccccc2)C(=O)N[C@@H](Cc2ccc(F)cc2F)C(=O)N[C@@H](CC(=O)O)C1=O [compound 1334] ({CH2CO}-F[Phe(2,4-F2)]D[NHexGly]YLNRL[Ahp(2)]PVVCG-OH; thioether N-14) | –
11 | 16.3 nM | CCCCCCN1CC(=O)N[C@@H](Cc2ccc(O)cc2)C(=O)N[C@@H](CCCC)C(=O)N[C@@H](CC(N)=O)C(=O)N[C@@H](CCCNC(=N)N)C(=O)N[C@@H](CC(C)C)C(=O)N[C@@H](CCCCC)C(=O)N2CCC[C@H]2C(=O)N[C@@H](C(C)C)C(=O)N[C@@H](CO)C(=O)N[C@H](C(=O)NCCOCCOCC(=O)N[C@@H](CC(=O)NCCOCCOCC(=O)NCCCCCCCCCCC(=O)O)C(=O)O)CSCC(=O)N[C@@H](Cc2ccc3ccccc3c2)C(=O)N[C@@H](Cc2ccc(O)cc2)C(=O)N[C@@H](CC(=O)O)C1=O [Example 2206] ({CH2CO}-[2Nal]YD[NHexGly]Y[Nle]NRL[Ahp(2)]PVSC[AEEA][βAsp][AEEA][Aun]-OH; thioether N-14) | –
12 | 15.8 nM | CCCCCCN1CC(=O)N[C@@H](Cc2ccc(O)cc2)C(=O)N[C@@H](CCCCC)C(=O)NCC(=O)N[C@@H](CCCNC(=N)N)C(=O)N[C@@H](CC(C)C)C(=O)N[C@@H](CCCCC)C(=O)N2CCC[C@H]2C(=O)N[C@@H](C(C)C)C(=O)N2C[C@H](O)C[C@H]2C(=O)N[C@H](C(=O)NCC(=O)O)CSCC(=O)N[C@@H](Cc2ccccc2)C(=O)N[C@@H](Cc2ccc(O)cc2)C(=O)N[C@@H](CC(=O)O)C1=O [compound 1111] ({CH2CO}-FYD[NHexGly]Y[Ahp(2)]GRL[Ahp(2)]PV[Hyp]CG-OH; thioether N-14) | –
13 | 2.2 nM | CCCCCCN1CC(=O)N[C@@H](Cc2ccc(O)cc2)C(=O)N[C@@H](CCCC)C(=O)N[C@@H](CC(N)=O)C(=O)N[C@@H](CCCNC(=N)N)C(=O)N[C@@H](CC(C)C)C(=O)N[C@@H](CCCCC)C(=O)N2CCC[C@H]2C(=O)N[C@@H](C(C)C)C(=O)N[C@@H](CC(=O)O)C(=O)N[C@H](C(=O)NCC(=O)O)CSCC(=O)N[C@@H](Cc2ccccc2)C(=O)N[C@@H](Cc2ccc(F)cc2F)C(=O)N[C@@H](CC(=O)O)C1=O [compound 1335] ({CH2CO}-F[Phe(2,4-F2)]D[NHexGly]Y[Nle]NRL[Ahp(2)]PVDCG-OH; thioether N-14) | –
14 | 35.5 nM | CCCCCCN1CC(=O)N[C@@H](Cc2ccc(O)cc2)C(=O)N[C@@H](CCCC)C(=O)N[C@@H](CC(N)=O)C(=O)N[C@@H](CCCNC(=N)N)C(=O)N(C)[C@@H](CC(C)C)C(=O)N[C@@H](CCCCC)C(=O)N2CCC[C@H]2C(=O)N[C@@H](C(C)C)C(=O)N[C@@H](CO)C(=O)N[C@H](C(=O)N[C@@H](CC(=O)NCCOCCOCC(=O)NCCCCCCCCCCC(=O)O)C(=O)O)CSCC(=O)N[C@@H](Cc2ccc3ccccc3c2)C(=O)N[C@@H](Cc2ccc(O)cc2)C(=O)N[C@@H](CC(=O)O)C1=O [Example 2164] ({CH2CO}-[2Nal]YD[NHexGly]Y[Nle]NR[NMeL][Ahp(2)]PVSC[βAsp][AEEA][Aun]-OH; thioether N-14) | –
